Data published in patent US8084644B2, “Iminopropene compound and use thereof” (Sumitomo Chemical Company, Limited, priority 2005, dated 2011).
Some of these results come from one statement about several compounds together. Some compounds share one range, which may span the group rather than tell each member.

What was measured:
Type in all cases: in vivo
[1] = test system: Plutella xylostella; assay: Test Example 9: cabbage test on diamondback, second-instar; conditions: 500 ppm, 25° C., after five days
[2] = test system: Spodoptela litura; assay: Test Example 1: artificial diet test on tobacco cutworm larvae; conditions: 500 ppm, fourth-instar larvae, after 6 days
[3] = test system: Adoxophyes orana; assay: Test Example 2: artificial diet test on summer fruit tortrix larvae; conditions: 500 ppm, first-instar larvae, after 7 days

Row | SMILES | index number (mortality) [1] | index number (mortality) [2] | index number (mortality) [3]
1 | Clc1ccc(SC(C=CSc2ccccc2)=Nc2ccccc2)cc1Cl [(11), 3,4-Dichlorophenyl N-phenyl-3-(phenylthio)thioacrylimidate] | 3 (mortality 80 to 99%) |  | 
2 | COc1cccc(N=C(C=CSc2ccccc2)Oc2ccccc2)c1 [(44), Phenyl N-(3-methoxyphenyl)-3-(phenylthio)acrylimidate] | 3 (mortality 80 to 99%) | 3 (mortality 80 to 99%) | 3 (mortality 80 to 99%)
3 | Fc1ccccc1N=C(C=CSc1ccccc1)Oc1ccccc1 [(48), Phenyl N-(2-fluorophenyl)-3-(phenylthio)acrylimidate] |  |  | 3 (mortality 80 to 99%)
4 | FC(F)(F)c1ccc(N=C(C=CSc2ccccc2)Oc2ccccc2)cc1 [(52), Phenyl N-(4-trifluoromethylphenyl)-3-(phenylthio)acrylimidate] | 3 (mortality 80 to 99%) |  | 3 (mortality 80 to 99%)
5 | O=[N+]([O-])c1ccc(N=C(C=CSc2ccccc2)Oc2ccccc2)cc1 [(55), Phenyl N-(4-nitrophenyl)-3-(phenylthio)acrylimidate] |  | 3 (mortality 80 to 99%) | 
6 | Cc1cccc(COC(C=CSc2ccccc2)=Nc2ccccc2)c1 [(61), 3-Methylbenzyl N-phenyl-3-(phenylthio)acrylimidate] |  | 3 (mortality 80 to 99%) | 
7 | Clc1ccc(COC(C=CSc2ccccc2)=Nc2ccccc2)cc1 [(67), 4-Chlorobenzyl N-phenyl-3-(phenylthio)acrylimidate] |  | 3 (mortality 80 to 99%) | 
8 | CC(C)(C)c1ccc(N=C(C=CSc2ccccc2)Oc2ccccc2)cc1 [(76), Phenyl N-[4-(1,1-dimethylethyl)phenyl]-3-(phenylthio)acrylimidate] | 3 (mortality 80 to 99%) | 3 (mortality 80 to 99%) | 3 (mortality 80 to 99%)
9 | C(=CC(=Nc1ccccc1)Oc1ccccc1)SCc1ccccc1 [(79), Phenyl 3-benzylthio-N-phenyl-acrylimidate] | 3 (mortality 80 to 99%) |  | 
10 | CC(C)c1ccc(N=C(C=CSc2ccccc2)Oc2cc(F)ccc2F)cc1 [(92), 2,5-Difluorophenyl N-[4-(1-methylethyl)phenyl]-3-(phenylthio)acrylimidate] |  |  | 3 (mortality 80 to 99%)
11 | CC(C)c1ccc(N=C(C=CSc2ccccc2)Oc2ccc(C#N)cc2)cc1 [(95), 4-Cyanophenyl N-[4-(1-methylethyl)phenyl]-3-(phenylthio)acrylimidate] | 3 (mortality 80 to 99%) |  | 
12 | C(=CC(=Nc1ccccc1)Oc1ccccc1)Sc1ccncc1 [(109), Phenyl N-phenyl-3-(4-pyridylthio)acrylimidate] | 3 (mortality 80 to 99%) |  | 
13 | FC(F)(F)c1ccccc1SC=CC(=Nc1ccccc1)Oc1ccccc1 [(110), Phenyl N-phenyl-3-(2-trifluoromethylphenylthio)acrylimidate] | 3 (mortality 80 to 99%) | 3 (mortality 80 to 99%) | 3 (mortality 80 to 99%)
14 | Cn1ccnc1SC=CC(=Nc1ccccc1)Oc1ccccc1 [(116), Phenyl 3-(1-methyl-2-imidazolylthio)-N-phenylacrylimidate] | 3 (mortality 80 to 99%) |  | 
15 | CC(C)SC=CC(=Nc1ccccc1)Oc1ccccc1 [(139), Phenyl 3-(1-methylethylthio)-N-phenylacrylimidate] | 3 (mortality 80 to 99%) |  | 
16 | CCCCCCCCCCCCSC=CC(=Nc1ccccc1)Oc1ccccc1 [(142), Phenyl 3-dodecylthio-N-phenylacrylimidate] |  | 3 (mortality 80 to 99%) | 

Row | SMILES | index number (mortality) [1] | index number (mortality) [2] | index number (mortality) [3]
17 | CC(SC=CC(=Nc1ccccc1)Oc1ccccc1)c1ccccc1 (centres unmarked) [(145), Phenyl N-phenyl-3-(1-phenylethylthio)acrylimidate] | 3 (mortality 80 to 99%) |  | 
18 | CN(C(C=CSc1ccc(Cl)cc1)=Nc1ccccc1)c1ccccc1 [(152), N-Methyl-N-phenyl-N′-phenyl-3-(4-chlorophenylthio)acrylamidine] |  | 3 (mortality 80 to 99%) | 3 (mortality 80 to 99%)
19 | CSC(C=CSc1ccc(Cl)cc1)=Nc1ccccc1 [(165), Methyl 3-(4-chlorophenylthio)-N-(phenyl)thioacrylimidate] | 3 (mortality 80 to 99%) |  | 
20 | CC(C)(C)Oc1ccc(N=C(C=COc2ccccc2)Oc2ccccc2)cc1 [(185), Phenyl N-[4-(1,1-dimethylethoxy)phenyl]-3-phenoxyacrylimidate] | 3 (mortality 80 to 99%) |  | 
21 | C#CCSC(C=CSc1ccccc1)=Nc1ccccc1 [(191), 2-Propynyl N-phenyl-3-(phenylthio)thioacrylimidate] | 3 (mortality 80 to 99%) |  | 
22 | COc1ccc(CSC=CC(=Nc2ccccc2)SCc2ccccc2)cc1 [(245), Benzyl 3-(4-methoxybenzylthio)-N-phenyl-thioacrylimidate] | 3 (mortality 80 to 99%) |  | 
23 | Cc1ccc(SC=CC(=Nc2ccccc2)SCc2ccccc2)c(C)c1 [(252), Benzyl 3-(2,4-dimethylphenylthio)-N-phenyl-thioacrylimidate] | 3 (mortality 80 to 99%) |  | 
24 | C(=CC(=Nc1ccccc1)SCc1ccccc1)Sc1ccccn1 [(254), Benzyl N-phenyl-3-(2-pyridylthio)-thioacrylimidate] | 3 (mortality 80 to 99%) |  | 
25 | Cc1cccc(OC(C=COCc2ccc(F)cc2)=Nc2ccc(C)c(C)c2)c1 [(311), 3-Methylphenyl 3-(4-fluorobenzyloxy)-N-(3,4-dimethylphenyl)acrylimidate] |  |  | 3 (mortality 80 to 99%)
26 | Cc1ccc(CSC=CC(=Nc2ccc(C)cc2)SCC2CCCCC2)cc1 [(375), Cyclohexylmethyl 3-(4-methylbenzylthio)-N-(4-methylphenyl)-thioacrylimidate] | 3 (mortality 80 to 99%) |  | 
27 | Cc1ccc(N=C(C=CSCc2ccc(Cl)cc2)SCC2CCCCC2)cc1 [(377), Cyclohexylmethyl 3-(4-chlorobenzylthio)-N-(4-methylphenyl)-thioacrylimidate] | 3 (mortality 80 to 99%) | 3 (mortality 80 to 99%) | 
28 | Cc1ccc(N=C(C=CSCc2ccc(Cl)cc2Cl)SCC2CCCCC2)cc1 [(379), Cyclohexylmethyl 3-(2,4-dichlorobenzylthio)-N-(4-methylphenyl)-thioacrylimidate] | 3 (mortality 80 to 99%) |  | 
29 | Cc1ccc(N=C(C=CSCc2ccccc2C)SCC2CCCCC2)cc1 [(381), Cyclohexylmethyl 3-(2-methylbenzylthio)-N-(4-methylphenyl)-thioacrylimidate] |  |  | 3 (mortality 80 to 99%)
30 | COc1ccc(CSC=CC(=Nc2ccc(C)cc2)SCC2CCCCC2)cc1 [(383), Cyclohexylmethyl 3-(4-methoxybenzylthio)-N-(4-methylphenyl)-thioacrylimidate] |  |  | 3 (mortality 80 to 99%)
31 | Cc1ccc(N=C(C=CSCc2ccc(Cl)cc2)SCCc2ccccc2)cc1 [(422), 1-Phenethyl 3-(4-chlorobenzylthio)-N-(4-methylphenyl)-thioacrylimidate] | 3 (mortality 80 to 99%) |  | 
32 | Cc1ccc(N=C(C=CSCc2ccccc2C)SCCc2ccccc2)cc1 [(424), 1-Phenethyl 3-(2-methylbenzylthio)-N-(4-methylphenyl)-thioacrylimidate] |  |  | 3 (mortality 80 to 99%)
